Experimental data: patent publication US20100093867A1, “Method Of Treating Genetic Disease Caused By Nonsense Mutation” (priority 2006, published 2010)
Some of these results come from one statement about several compounds together. Square brackets hold non-standard residues; d marks the D form. Peptide text beside a SMILES is read from it. ξ: configuration not given here. ξL = CC(C)CC(N)C(=O)O

System: premature termination codon (TAA)
Experiment: Assay for read-through activity in transgenic mice (β-galactosidase/luciferase dual reporter)
Format: in vivo
Settings: 100 μg/100 μL in saline, subcutaneous, each 24 hours for 7 days; femoral and tibial skeletal muscles; luciferase/β-galactosidase x 10^4; versus saline control

SMILES | read-through activity (Readthrough Efficiency)
CC(C)CC(NC(=O)CN)C(=O)NCC(=O)O (stereo not shown) [compound 1] (H-Gly-[ξL]-Gly-OH) | significantly higher read-through activity than control saline
CC(=O)NC(CC(N)=O)C(=O)O (stereo not shown) [compound 2] | significantly higher read-through activity than control saline
COC(=O)CN(CC(=O)OC)NC(=O)/C=C/C(=O)O [compound 3] | significantly higher read-through activity than control saline
NNC(=O)C(=O)NCCCCCC(=O)O [compound 4] | significantly higher read-through activity than control saline
